PubChem BioAssay AID1259405 | NCATS, 2018

Test: 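Mouse-designed siRNAs used to find CHO productivity engineering targets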 (primary screen)
System: Chinese hamster CHO-K1 ovary cells with stable secreted eGFP expression
Reagent: single siRNA against mouse genes, 0.8 pmol siRNA per well (2 µl of 400 nM stock)
Duration: 3 days
Detection: 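Per-well intracellular GFP measured by laser scanning cytometry, plus viability from ATP luminescence, each relative to plate median of non-targeting control wells, in %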
Reading the numbers: GFP, % of control: higher = more GFP per well, higher productivity; viability (ATP), % of control: higher = more viable cells (more ATP)
Call rule: 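Called active when intracellular GFP, relative to negative control, is at or above 120%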
Here is one part, drawn at random, of about 50,000 reagents tested. Over the whole deposit, about 4,000 (8%) got an active call. 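Mouse siRNA library applied to hamster cells; one well for each siRNA.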 The numbers tell different reagents against one gene apart.

gene	reagent	GFP, % of control	viability (ATP), % of control	activity call
Ccdc57 (coiled-coil domain containing 57)	1	73.3	63.4	inactive
Ccdc57 (coiled-coil domain containing 57)	2	91.6	87.5	inactive
Ccdc57 (coiled-coil domain containing 57)	3	73.7	78.4	inactive
Git2 (GIT ArfGAP 2)	1	177	116	active
Git2 (GIT ArfGAP 2)	2	73.8	60.1	inactive
Git2 (GIT ArfGAP 2)	3	81.7	91.9	inactive
Odr4 (odr4 GPCR localization factor homolog)	1	155	98.9	active
Odr4 (odr4 GPCR localization factor homolog)	2	73.3	73.1	inactive
Odr4 (odr4 GPCR localization factor homolog)	3	48.7	62.7	inactive
Fam174c (family with sequence similarity 174, member C)	1	80.4	74	inactive
Fam174c (family with sequence similarity 174, member C)	2	73.4	53.1	inactive
Fam174c (family with sequence similarity 174, member C)	3	76	95.3	inactive
En1 (engrailed 1)	1	70.5	98.3	inactive
En1 (engrailed 1)	2	109	83	inactive
En1 (engrailed 1)	3	75.3	33.1	inactive
Kcns1 (K+ voltage-gated channel, subfamily S, 1)	1	37.9	37.5	inactive
Kcns1 (K+ voltage-gated channel, subfamily S, 1)	2	136	84.2	active
Stmn1 (stathmin 1)	1	71.4	52.9	inactive
Stmn1 (stathmin 1)	2	87.8	122	inactive
Stmn1 (stathmin 1)	3	159	102	active
Nampt (nicotinamide phosphoribosyltransferase)	1	84.9	153	inactive
Nampt (nicotinamide phosphoribosyltransferase)	2	80.2	77.5	inactive
Naa50 (N(alpha)-acetyltransferase 50, NatE catalytic subunit)	1	32.1	75	inactive
Naa50 (N(alpha)-acetyltransferase 50, NatE catalytic subunit)	2	86.1	98.4	inactive
Naa50 (N(alpha)-acetyltransferase 50, NatE catalytic subunit)	3	46	64	inactive
Slc25a37	1	101	84.4	inactive
Slc25a37	2	60	71.3	inactive
Slc25a37	3	43	54.5	inactive
Wdr35 (WD repeat domain 35)	1	30.5	39	inactive
Wdr35 (WD repeat domain 35)	2	52.7	61.3	inactive
Wdr35 (WD repeat domain 35)	3	65.6	73.7	inactive
Casp4 (caspase 4, apoptosis-related cysteine peptidase)	1	58.6	82.7	inactive
Casp4 (caspase 4, apoptosis-related cysteine peptidase)	2	75.8	65.3	inactive
Casp4 (caspase 4, apoptosis-related cysteine peptidase)	3	55.7	69	inactive
Hepacam (hepatocyte cell adhesion molecule)	1	50.7	62	inactive
Hepacam (hepatocyte cell adhesion molecule)	2	65	66.7	inactive
Hepacam (hepatocyte cell adhesion molecule)	3	76.9	91.4	inactive
Mycbp2 (MYC binding protein 2, E3 ubiquitin protein ligase)	1	93.6	85.7	inactive
Mycbp2 (MYC binding protein 2, E3 ubiquitin protein ligase)	2	182	73.6	active
Mycbp2 (MYC binding protein 2, E3 ubiquitin protein ligase)	3	108	143	inactive

Not a retest: entries from further up.
gene	reagent	GFP, % of control	viability (ATP), % of control	activity call
Wdr35 (WD repeat domain 35)	1	30.5	39	inactive
Wdr35 (WD repeat domain 35)	2	52.7	61.3	inactive
Wdr35 (WD repeat domain 35)	3	65.6	73.7	inactive
Casp4 (caspase 4, apoptosis-related cysteine peptidase)	1	58.6	82.7	inactive
Casp4 (caspase 4, apoptosis-related cysteine peptidase)	2	75.8	65.3	inactive
Casp4 (caspase 4, apoptosis-related cysteine peptidase)	3	55.7	69	inactive
Hepacam (hepatocyte cell adhesion molecule)	1	50.7	62	inactive
Hepacam (hepatocyte cell adhesion molecule)	2	65	66.7	inactive
Hepacam (hepatocyte cell adhesion molecule)	3	76.9	91.4	inactive
Mycbp2 (MYC binding protein 2, E3 ubiquitin protein ligase)	1	93.6	85.7	inactive
Mycbp2 (MYC binding protein 2, E3 ubiquitin protein ligase)	2	182	73.6	active
Mycbp2 (MYC binding protein 2, E3 ubiquitin protein ligase)	3	108	143	inactive

The listing continues:
gene	reagent	GFP, % of control	viability (ATP), % of control	activity call
Uba52 (ubiquitin A-52 residue ribosomal protein fusion product 1)	1	77.5	87.3	inactive
Uba52 (ubiquitin A-52 residue ribosomal protein fusion product 1)	2	3.21	3.17	inactive
Uba52 (ubiquitin A-52 residue ribosomal protein fusion product 1)	3	75.6	69.6	inactive
Asic4 (acid-sensing ion channel family member 4)	1	89.1	127	inactive
Asic4 (acid-sensing ion channel family member 4)	2	36.7	60.7	inactive
Asic4 (acid-sensing ion channel family member 4)	3	73.5	84	inactive
Slco1a6	1	116	42.3	inactive
Slco1a6	2	77.7	66	inactive
Slco1a6	3	64.6	81.6	inactive
Fkbp8 (FK506 binding protein 8)	1	143	103	active
Fkbp8 (FK506 binding protein 8)	2	49.5	51.4	inactive
Fkbp8 (FK506 binding protein 8)	3	73.8	64.5	inactive
E2f1 (E2F transcription factor 1)	1	71.1	73.1	inactive
E2f1 (E2F transcription factor 1)	2	89	75.4	inactive
Or5af2 (olfactory receptor family 5 subfamily AF member 2)	1	64.5	63.9	inactive
Or5af2 (olfactory receptor family 5 subfamily AF member 2)	2	107	75.3	inactive
Or5af2 (olfactory receptor family 5 subfamily AF member 2)	3	107	64.3	inactive
Il1rl2 (interleukin 1 receptor-like 2)	1	91.1	97.2	inactive
Il1rl2 (interleukin 1 receptor-like 2)	2	47.4	59.5	inactive
Il1rl2 (interleukin 1 receptor-like 2)	3	63.4	66	inactive
Mageb3 (MAGE family member B3)	1	74.2	50.4	inactive
Mageb3 (MAGE family member B3)	2	45.2	64	inactive
Mageb3 (MAGE family member B3)	3	75.7	71.4	inactive
Cyp1a1 (cytochrome P450, family 1, subfamily a, polypeptide 1)	1	58.2	48.9	inactive
Cyp1a1 (cytochrome P450, family 1, subfamily a, polypeptide 1)	2	95.5	77.7	inactive
Cyp1a1 (cytochrome P450, family 1, subfamily a, polypeptide 1)	3	115	82.6	inactive
Chrm1 (cholinergic receptor, muscarinic 1, CNS)	1	52.4	26.5	inactive
Chrm1 (cholinergic receptor, muscarinic 1, CNS)	2	61.1	67.5	inactive
Chrm1 (cholinergic receptor, muscarinic 1, CNS)	3	62.2	66.1	inactive
Nrg4 (neuregulin 4)	1	72.6	53.5	inactive
Nrg4 (neuregulin 4)	2	55.5	76.9	inactive
Nrg4 (neuregulin 4)	3	90.1	41.9	inactive
Bmp4 (bone morphogenetic protein 4)	1	63.3	57.4	inactive
Bmp4 (bone morphogenetic protein 4)	2	59.5	67.8	inactive
Bmp4 (bone morphogenetic protein 4)	3	63.3	65	inactive
Akip1 (A kinase interacting protein 1)	1	71.8	85.8	inactive
Akip1 (A kinase interacting protein 1)	2	75.1	122	inactive
Akip1 (A kinase interacting protein 1)	3	177	78.3	active
Rnase10 (ribonuclease, RNase A family, 10 (non-active))	1	26	46.5	inactive
Rnase10 (ribonuclease, RNase A family, 10 (non-active))	2	59.8	106	inactive
Rnase10 (ribonuclease, RNase A family, 10 (non-active))	3	49.8	31.9	inactive
Or10g1b (olfactory receptor family 10 subfamily G member 1B)	1	67.6	60.3	inactive
Or10g1b (olfactory receptor family 10 subfamily G member 1B)	2	82.6	98.8	inactive
Or10g1b (olfactory receptor family 10 subfamily G member 1B)	3	82.4	48.4	inactive
